Assay results: paper PMC4973345
Results are given in words; binding and its absence hold for the method and conditions named. In cells and extracts the contact can be indirect. A yes stands for co-enrichment or nearness to the bait. Other partners may have been found.

Amino acid sequences for entries named in this document (tags omitted).
UniProt Q15910: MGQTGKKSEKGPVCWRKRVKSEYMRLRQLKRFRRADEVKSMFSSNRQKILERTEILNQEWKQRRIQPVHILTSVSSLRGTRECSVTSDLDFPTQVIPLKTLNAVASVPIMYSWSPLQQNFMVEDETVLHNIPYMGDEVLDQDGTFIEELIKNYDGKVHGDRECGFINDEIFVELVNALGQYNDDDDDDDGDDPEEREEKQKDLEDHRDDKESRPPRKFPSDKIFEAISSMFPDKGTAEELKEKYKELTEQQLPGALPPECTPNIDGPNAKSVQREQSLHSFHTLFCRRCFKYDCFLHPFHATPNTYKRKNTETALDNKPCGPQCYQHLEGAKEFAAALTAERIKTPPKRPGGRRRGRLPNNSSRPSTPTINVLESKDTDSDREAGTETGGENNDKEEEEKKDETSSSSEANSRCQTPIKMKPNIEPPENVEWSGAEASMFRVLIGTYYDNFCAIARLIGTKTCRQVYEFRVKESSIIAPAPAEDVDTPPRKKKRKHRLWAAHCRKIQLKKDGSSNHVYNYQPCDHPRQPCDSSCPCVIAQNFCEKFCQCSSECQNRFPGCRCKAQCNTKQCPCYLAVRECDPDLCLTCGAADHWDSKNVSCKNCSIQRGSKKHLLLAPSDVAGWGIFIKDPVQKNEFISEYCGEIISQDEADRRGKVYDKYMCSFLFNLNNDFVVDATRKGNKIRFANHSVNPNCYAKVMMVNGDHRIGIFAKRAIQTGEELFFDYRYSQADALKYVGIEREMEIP
UniProt P11387: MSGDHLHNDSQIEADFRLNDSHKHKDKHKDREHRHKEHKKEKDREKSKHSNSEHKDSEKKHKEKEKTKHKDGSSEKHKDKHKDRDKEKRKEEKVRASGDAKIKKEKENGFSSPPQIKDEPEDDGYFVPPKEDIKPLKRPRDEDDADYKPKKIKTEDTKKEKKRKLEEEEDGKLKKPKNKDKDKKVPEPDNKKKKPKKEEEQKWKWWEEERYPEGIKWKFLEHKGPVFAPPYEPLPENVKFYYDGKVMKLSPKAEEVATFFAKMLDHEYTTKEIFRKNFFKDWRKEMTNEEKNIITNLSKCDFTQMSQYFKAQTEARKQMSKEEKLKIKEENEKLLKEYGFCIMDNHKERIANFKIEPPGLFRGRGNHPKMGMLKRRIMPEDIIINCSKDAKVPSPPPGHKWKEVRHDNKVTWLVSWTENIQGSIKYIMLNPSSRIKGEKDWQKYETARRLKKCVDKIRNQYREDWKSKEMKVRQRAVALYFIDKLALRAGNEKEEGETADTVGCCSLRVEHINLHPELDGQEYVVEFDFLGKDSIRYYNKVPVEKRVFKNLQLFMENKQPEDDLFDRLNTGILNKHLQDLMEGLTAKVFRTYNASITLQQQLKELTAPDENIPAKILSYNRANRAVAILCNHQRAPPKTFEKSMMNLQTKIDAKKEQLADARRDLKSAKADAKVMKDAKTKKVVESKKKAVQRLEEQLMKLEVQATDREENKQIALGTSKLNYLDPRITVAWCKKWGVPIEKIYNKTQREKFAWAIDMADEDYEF
UniProt P08238: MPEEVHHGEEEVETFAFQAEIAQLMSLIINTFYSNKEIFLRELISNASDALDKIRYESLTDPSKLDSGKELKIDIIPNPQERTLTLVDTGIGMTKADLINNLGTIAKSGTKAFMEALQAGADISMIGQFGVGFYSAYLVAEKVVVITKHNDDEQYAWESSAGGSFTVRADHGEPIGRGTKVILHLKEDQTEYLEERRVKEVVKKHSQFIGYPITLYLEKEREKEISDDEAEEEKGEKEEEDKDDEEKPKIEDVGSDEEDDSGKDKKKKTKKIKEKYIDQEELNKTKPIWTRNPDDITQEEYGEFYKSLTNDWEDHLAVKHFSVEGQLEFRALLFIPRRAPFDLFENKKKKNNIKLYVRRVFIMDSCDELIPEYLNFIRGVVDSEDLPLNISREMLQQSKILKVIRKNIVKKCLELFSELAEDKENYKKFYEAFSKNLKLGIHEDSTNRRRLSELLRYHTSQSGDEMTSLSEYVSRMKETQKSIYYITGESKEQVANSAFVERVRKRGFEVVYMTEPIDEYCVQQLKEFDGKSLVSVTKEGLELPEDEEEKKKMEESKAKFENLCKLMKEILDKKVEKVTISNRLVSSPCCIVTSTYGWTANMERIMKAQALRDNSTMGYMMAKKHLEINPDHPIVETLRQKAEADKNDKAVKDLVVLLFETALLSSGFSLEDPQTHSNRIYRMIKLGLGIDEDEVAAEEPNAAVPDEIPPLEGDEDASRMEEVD
UniProt Q9Y483: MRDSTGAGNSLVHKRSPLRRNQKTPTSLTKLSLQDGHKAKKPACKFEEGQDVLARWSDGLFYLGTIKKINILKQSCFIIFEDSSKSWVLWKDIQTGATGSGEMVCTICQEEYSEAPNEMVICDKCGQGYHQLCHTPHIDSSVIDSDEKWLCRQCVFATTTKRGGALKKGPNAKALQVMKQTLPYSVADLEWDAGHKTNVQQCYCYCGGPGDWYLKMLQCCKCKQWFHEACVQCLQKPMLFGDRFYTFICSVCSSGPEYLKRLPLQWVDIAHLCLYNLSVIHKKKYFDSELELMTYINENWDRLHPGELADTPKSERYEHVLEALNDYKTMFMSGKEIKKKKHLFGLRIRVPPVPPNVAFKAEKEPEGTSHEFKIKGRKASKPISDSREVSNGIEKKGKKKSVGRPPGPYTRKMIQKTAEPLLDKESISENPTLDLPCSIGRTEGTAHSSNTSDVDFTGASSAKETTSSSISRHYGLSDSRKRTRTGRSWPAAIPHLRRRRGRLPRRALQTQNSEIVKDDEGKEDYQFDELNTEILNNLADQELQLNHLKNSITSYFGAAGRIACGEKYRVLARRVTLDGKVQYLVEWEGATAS
UniProt O00567: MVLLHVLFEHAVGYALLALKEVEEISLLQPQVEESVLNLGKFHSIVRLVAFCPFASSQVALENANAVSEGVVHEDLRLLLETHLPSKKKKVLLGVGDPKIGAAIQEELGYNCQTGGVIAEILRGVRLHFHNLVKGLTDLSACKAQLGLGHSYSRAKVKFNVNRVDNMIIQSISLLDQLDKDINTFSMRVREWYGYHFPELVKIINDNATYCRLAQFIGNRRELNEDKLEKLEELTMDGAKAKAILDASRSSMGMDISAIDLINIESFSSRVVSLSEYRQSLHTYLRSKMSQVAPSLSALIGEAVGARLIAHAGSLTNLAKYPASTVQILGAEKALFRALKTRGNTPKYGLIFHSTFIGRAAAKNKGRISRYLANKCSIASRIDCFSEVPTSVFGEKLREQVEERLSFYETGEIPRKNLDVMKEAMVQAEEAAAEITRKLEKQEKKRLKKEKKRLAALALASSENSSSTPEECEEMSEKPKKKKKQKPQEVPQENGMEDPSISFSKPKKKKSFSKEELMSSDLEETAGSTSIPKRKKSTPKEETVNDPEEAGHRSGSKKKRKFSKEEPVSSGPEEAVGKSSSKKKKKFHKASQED
UniProt P13010: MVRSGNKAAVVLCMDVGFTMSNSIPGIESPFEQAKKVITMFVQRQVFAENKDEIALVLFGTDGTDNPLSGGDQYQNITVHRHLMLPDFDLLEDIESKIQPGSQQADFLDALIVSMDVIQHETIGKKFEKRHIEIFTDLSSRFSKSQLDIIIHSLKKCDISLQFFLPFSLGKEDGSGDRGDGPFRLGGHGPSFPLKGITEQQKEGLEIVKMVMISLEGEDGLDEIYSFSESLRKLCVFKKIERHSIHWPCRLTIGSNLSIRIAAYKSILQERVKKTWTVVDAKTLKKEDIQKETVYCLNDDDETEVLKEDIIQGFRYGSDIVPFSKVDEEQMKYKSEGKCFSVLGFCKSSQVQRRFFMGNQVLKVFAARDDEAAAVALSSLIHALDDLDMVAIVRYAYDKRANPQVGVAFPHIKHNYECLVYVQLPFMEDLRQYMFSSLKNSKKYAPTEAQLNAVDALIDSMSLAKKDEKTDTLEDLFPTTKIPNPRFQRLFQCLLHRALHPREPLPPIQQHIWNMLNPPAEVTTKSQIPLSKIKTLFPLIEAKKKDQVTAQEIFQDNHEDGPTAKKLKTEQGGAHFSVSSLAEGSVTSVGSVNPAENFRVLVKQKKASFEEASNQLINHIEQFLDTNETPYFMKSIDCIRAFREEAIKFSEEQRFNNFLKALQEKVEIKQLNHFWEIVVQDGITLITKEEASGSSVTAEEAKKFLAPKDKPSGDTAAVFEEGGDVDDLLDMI
UniProt P11142: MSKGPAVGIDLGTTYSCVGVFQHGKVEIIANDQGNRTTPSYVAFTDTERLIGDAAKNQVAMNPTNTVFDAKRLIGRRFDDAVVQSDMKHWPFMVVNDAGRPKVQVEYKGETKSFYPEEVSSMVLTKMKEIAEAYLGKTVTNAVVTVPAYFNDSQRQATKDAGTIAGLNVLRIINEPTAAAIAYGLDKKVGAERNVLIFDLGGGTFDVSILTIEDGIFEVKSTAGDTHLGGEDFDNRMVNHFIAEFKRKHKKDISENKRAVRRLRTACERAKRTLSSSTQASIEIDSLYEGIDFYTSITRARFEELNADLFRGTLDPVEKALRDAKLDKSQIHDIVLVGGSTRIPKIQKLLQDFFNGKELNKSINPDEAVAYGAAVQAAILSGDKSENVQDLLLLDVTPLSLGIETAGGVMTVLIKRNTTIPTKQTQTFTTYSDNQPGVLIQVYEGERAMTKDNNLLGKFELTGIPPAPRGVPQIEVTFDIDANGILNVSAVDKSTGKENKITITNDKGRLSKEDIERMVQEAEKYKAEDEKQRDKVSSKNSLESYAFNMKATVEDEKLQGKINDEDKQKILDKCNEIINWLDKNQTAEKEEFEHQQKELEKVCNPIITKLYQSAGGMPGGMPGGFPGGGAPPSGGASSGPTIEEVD

What follows are molecules tested against Histone-lysine N-methyltransferase EZH2 (human (endogenous in Jurkat)) (UniProt Q15910) (assay: affinity purification with mass spectrometry; nuclear protein fraction of Jurkat T cells; anti-EZH2 antibody cross-linked (disuccinimidyl suberate) to protein A/G magnetic beads, overnight, washed three times with lysis buffer (150 mM NaCl, 1.0% NP-40, 50 mM Tris-Cl pH 7.4); Coomassie-stained bands cut and analysed by MS). Conditions: not given.

Molecule	binding
DNA topoisomerase 1 (from UniProt P11387 1-765)	binds
Heat shock protein 90-beta (from UniProt P08238 1-724)	binds
Metal-response element-binding transcription factor 2 (from UniProt Q9Y483 1-593)	binds
Nucleolar protein 56 (from UniProt O00567 1-594)	binds
X-ray repair cross-complementing protein 5 (from UniProt P13010 1-732)	binds
DNA replication licensing factor MCM3 (protein, UniProt P25205 1-808) MAGTVVLDDVELREAQRDYLDFLDDEEDQGIYQSKVRELISDNQYRLIVNVNDLRRKNEKRANRLLNNAFEELVAFQRALKDFVASIDATYAKQYEEFYVGLEGSFGSKHVSPRTLTSCFLSCVVCVEGIVTKCSLVRPKVVRSVHYCPATKKTIERRYSDLTTLVAFPSSSVYPTKDEENNPLETEYGLSVYKDHQTITIQEMPEKAPAGQLPRSVDVILDDDLVDKAKPGDRVQVVGTYRCLPGKKGGYTSGTFRTVLIACNVKQMSKDAQPSFSAEDIAKIKKFSKTRSKDIFDQLAKSLAPSIHGHDYVKKAILCLLLGGVERDLENGSHIRGDINILLIGDPSVAKSQLLRYVLCTAPRAIPTTGRGSSGVGLTAAVTTDQETGERRLEAGAMVLADRGVVCIDEFDKMSDMDRTAIHEVMEQGRVTIAKAGIHARLNARCSVLAAANPVYGRYDQYKTPMENIGLQDSLLSRFDLLFIMLDQMDPEQDREISDHVLRMHRYRAPGEQDGDAMPLGSAVDILATDDPNFSQEDQQDTQIYEKHDNLLHGTKKKKEKMVSAAFMKKYIHVAKIIKPVLTQESATYIAEEYSRLRSQDSMSSDTARTSPVTARTLETLIRLATAHAKARMSKTVDLQDAEEAVELVQYAYFKKVLEKEKKRKKRSEDESETEDEEEKSQEDQEQKRKRRKTRQPDAKDGDSYDPYDFSDTEEEMPQVHTPKTADSQETKESQKVELSESRLKAFKVALLDVFREAHAQSIGMNRLTESINRDSEEPFSSVEIQAALSKMQDDNQVMVSEGIIFLI	binds
DNA replication licensing factor MCM5 (protein, UniProt P33992 1-734) MSGFDDPGIFYSDSFGGDAQADEGQARKSQLQRRFKEFLRQYRVGTDRTGFTFKYRDELKRHYNLGEYWIEVEMEDLASFDEDLADYLYKQPAEHLQLLEEAAKEVADEVTRPRPSGEEVLQDIQVMLKSDASPSSIRSLKSDMMSHLVKIPGIIIAASAVRAKATRISIQCRSCRNTLTNIAMRPGLEGYALPRKCNTDQAGRPKCPLDPYFIMPDKCKCVDFQTLKLQELPDAVPHGEMPRHMQLYCDRYLCDKVVPGNRVTIMGIYSIKKFGLTTSRGRDRVGVGIRSSYIRVLGIQVDTDGSGRSFAGAVSPQEEEEFRRLAALPNVYEVISKSIAPSIFGGTDMKKAIACLLFGGSRKRLPDGLTRRGDINLLMLGDPGTAKSQLLKFVEKCSPIGVYTSGKGSSAAGLTASVMRDPSSRNFIMEGGAMVLADGGVVCIDEFDKMREDDRVAIHEAMEQQTISIAKAGITTTLNSRCSVLAAANSVFGRWDETKGEDNIDFMPTILSRFDMIFIVKDEHNEERDVMLAKHVITLHVSALTQTQAVEGEIDLAKLKKFIAYCRVKCGPRLSAEAAEKLKNRYIIMRSGARQHERDSDRRSSIPITVRQLEAIVRIAEALSKMKLQPFATEADVEEALRLFQVSTLDAALSGTLSGVEGFTSQEDQEMLSRIEKQLKRRFAIGSQVSEHSIIKDFTKQKYPEHAIHKVLQLMLRRGEIQHRMQRKVLYRLK	binds

Other lines, results leading:

binding	Molecule
binds	Heat shock cognate 70 protein (from UniProt P11142 1-646)
binds	Isoform 2 of Nucleolar RNA helicase 2 (protein, UniProt Q9NR30-2 1-715) MNSPKSKKAKKKEEPSQNDISPKTKSLRKKKEPIEKKVVSSKTKKVTKNEEPSEEEIDAPKPKKMKKEKEMNGETREKSPKLKNGFPHPEPDCNPSEAASEESNSEIEQEIPVEQKEGAFSNFPISEETIKLLKGRGVTFLFPIQAKTFHHVYSGKDLIAQARTGTGKTFSFAIPLIEKLHGELQDRKRGRAPQVLVLAPTRELANQVSKDFSDITKKLSVACFYGGTPYGGQFERMRNGIDILVGTPGRIKDHIQNGKLDLTKLKHVVLDEVDQMLDMGFADQVEEILSVAYKKDSEDNPQTLLFSATCPHWVFNVAKKYMKSTYEQVDLIGKKTQKTAITVEHLAIKCHWTQRAAVIGDVIRVYSGHQGRTIIFCETKKEAQELSQNSAIKQDAQSLHGDIPQKQREITLKGFRNGSFGVLVATNVAARGLDIPEVDLVIQSSPPKDVESYIHRSGRTGRAGRTGVCICFYQHKEEYQLVQVEQKAGIKFKRIGVPSATEIIKASSKDAIRLLDSVPPTAISHFKQSAEKLIEEKGAVEALAAALAHISGATSVDQRSLINSNVGFVTMILQCSIEMPNISYAWKELKEQLGEEIDSKVKGMVFLKGKLGVCFDVPTASVTEIQEKWHDSRRWQLSVATEQPELEGPREGYGGFRGQREGSRGFRGQRDGNRRFRGQREGSRGPRGQRSGGGNKSNRSQNKGQKRSFSKAFGQ
binds	Ribosomal RNA methyltransferase NOP2 (protein, UniProt P46087 1-812) MGRKLDPTKEKRGPGRKARKQKGAETELVRFLPAVSDENSKRLSSRARKRAAKRRLGSVEAPKTNKSPEAKPLPGKLPKGISAGAVQTAGKKGPQSLFNAPRGKKRPAPGSDEEEEEEDSEEDGMVNHGDLWGSEDDADTVDDYGADSNSEDEEEGEALLPIERAARKQKAREAAAGIQWSEEETEDEEEEKEVTPESGPPKVEEADGGLQINVDEEPFVLPPAGEMEQDAQAPDLQRVHKRIQDIVGILRDFGAQREEGRSRSEYLNRLKKDLAIYYSYGDFLLGKLMDLFPLSELVEFLEANEVPRPVTLRTNTLKTRRRDLAQALINRGVNLDPLGKWSKTGLVVYDSSVPIGATPEYLAGHYMLQGASSMLPVMALAPQEHERILDMCCAPGGKTSYMAQLMKNTGVILANDANAERLKSVVGNLHRLGVTNTIISHYDGRQFPKVVGGFDRVLLDAPCSGTGVISKDPAVKTNKDEKDILRCAHLQKELLLSAIDSVNATSKTGGYLVYCTCSITVEENEWVVDYALKKRNVRLVPTGLDFGQEGFTRFRERRFHPSLRSTRRFYPHTHNMDGFFIAKFKKFSNSIPQSQTGNSETATPTNVDLPQVIPKSENSSQPAKKAKGAAKTKQQLQKQQHPKKASFQKLNGISKGADSELSTVPSVTKTQASSSFQDSSQPAGKAEGIREPKVTGKLKQRSPKLQSSKKVAFLRQNAPPKGTDTQTPAVLSPSKTQATLKPKDHHQPLGRAKGVEKQQLPEQPFEKAAFQKQNDTPKGPQPPTVSPIRSSRPPPAKRKKSQSRGNSQLLLS

The molecules below were run against Histone-lysine N-methyltransferase EZH2 (human (endogenous in Jurkat)), Q15910 in the same assay as above. Conditions: remark: other sources report otherwise.

binding	Molecule
binds	Nucleolar protein 58, Q9Y2X3 1-529 (protein) MLVLFETSVGYAIFKVLNEKKLQEVDSLWKEFETPEKANKIVKLKHFEKFQDTAEALAAFTALMEGKINKQLKKVLKKIVKEAHEPLAVADAKLGGVIKEKLNLSCIHSPVVNELMRGIRSQMDGLIPGVEPREMAAMCLGLAHSLSRYRLKFSADKVDTMIVQAISLLDDLDKELNNYIMRCREWYGWHFPELGKIISDNLTYCKCLQKVGDRKNYASAKLSELLPEEVEAEVKAAAEISMGTEVSEEDICNILHLCTQVIEISEYRTQLYEYLQNRMMAIAPNVTVMVGELVGARLIAHAGSLLNLAKHAASTVQILGAEKALFRALKSRRDTPKYGLIYHASLVGQTSPKHKGKISRMLAAKTVLAIRYDAFGEDSSSAMGVENRAKLEARLRTLEDRGIRKISGTGKALAKTEKYEHKSEVKTYDPSGDSTLPTCSKKRKIEQVDKEDEITEKKAKKAKIKVKVEEEEEEKVAEEEETSVKKKKKRGKKKHIKEEPLSEEEPCTSTAIASPEKKKKKKKKRENED
